Experimental data: publication PMC12199405
These are yes or no findings as the source states them, for the method shown. Binding seen in cells or lysates may run through a third protein. These calls come from enrichment with a bait or labelling near it, and not all partners need be listed.

Chains of the proteins cited; added tags and fusions are not shown.
UniProt P28033: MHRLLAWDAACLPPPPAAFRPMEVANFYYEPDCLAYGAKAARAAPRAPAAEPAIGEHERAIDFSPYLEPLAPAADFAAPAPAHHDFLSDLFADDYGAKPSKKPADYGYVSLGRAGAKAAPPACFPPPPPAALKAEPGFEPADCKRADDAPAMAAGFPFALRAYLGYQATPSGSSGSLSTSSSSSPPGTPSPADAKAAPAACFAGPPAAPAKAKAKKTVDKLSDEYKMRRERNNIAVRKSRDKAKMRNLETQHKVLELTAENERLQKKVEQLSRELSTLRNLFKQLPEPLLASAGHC

Biological target: CCAAT/enhancer-binding protein beta (C/EBPβ) (mouse (endogenous in BV2)) (UniProt P28033)
Test: affinity purification with mass spectrometry; nuclear proteins of BV2 cells, reciprocal immunoprecipitation with a C/EBPβ antibody (control IgG), protein A/G magnetic beads, five washes with IP lysis buffer, eluate identified by LC-MS/MS

B1: p21 (coded by Cdkn1a) (protein, UniProt P39689 1-159)
chain: MSNPGDVRPVPHRSKVCRCLFGPVDSEQLRRDCDALMAGCLQEARERWNFDFVTETPLEGNFVWERVRSLGLPKVYLSPGSRSRDDLGGDKRPSTSSALLQGPAPEDHVALSLSCTLVSERPEDSPGGPGTSQGRKRRQTSLTDFYHSKRRLVFCKRKP
  binding: binds
